Results are given in words; binding and its absence hold for the method and conditions named. In cells and extracts the contact can be indirect. A yes stands for co-enrichment or nearness to the bait. Other partners may have been found.
Target: ACTN3 (mouse (endogenous in C2C12)) (UniProt O88990)
Test: affinity purification with mass spectrometry; immunoprecipitation of ACTN3 from C2C12 (LD fraction and whole cell lysate compared by silver staining), then protein mass spectrometry

By UniProt entry, the sequences of proteins in these tests, tags left out.
UniProt O88990: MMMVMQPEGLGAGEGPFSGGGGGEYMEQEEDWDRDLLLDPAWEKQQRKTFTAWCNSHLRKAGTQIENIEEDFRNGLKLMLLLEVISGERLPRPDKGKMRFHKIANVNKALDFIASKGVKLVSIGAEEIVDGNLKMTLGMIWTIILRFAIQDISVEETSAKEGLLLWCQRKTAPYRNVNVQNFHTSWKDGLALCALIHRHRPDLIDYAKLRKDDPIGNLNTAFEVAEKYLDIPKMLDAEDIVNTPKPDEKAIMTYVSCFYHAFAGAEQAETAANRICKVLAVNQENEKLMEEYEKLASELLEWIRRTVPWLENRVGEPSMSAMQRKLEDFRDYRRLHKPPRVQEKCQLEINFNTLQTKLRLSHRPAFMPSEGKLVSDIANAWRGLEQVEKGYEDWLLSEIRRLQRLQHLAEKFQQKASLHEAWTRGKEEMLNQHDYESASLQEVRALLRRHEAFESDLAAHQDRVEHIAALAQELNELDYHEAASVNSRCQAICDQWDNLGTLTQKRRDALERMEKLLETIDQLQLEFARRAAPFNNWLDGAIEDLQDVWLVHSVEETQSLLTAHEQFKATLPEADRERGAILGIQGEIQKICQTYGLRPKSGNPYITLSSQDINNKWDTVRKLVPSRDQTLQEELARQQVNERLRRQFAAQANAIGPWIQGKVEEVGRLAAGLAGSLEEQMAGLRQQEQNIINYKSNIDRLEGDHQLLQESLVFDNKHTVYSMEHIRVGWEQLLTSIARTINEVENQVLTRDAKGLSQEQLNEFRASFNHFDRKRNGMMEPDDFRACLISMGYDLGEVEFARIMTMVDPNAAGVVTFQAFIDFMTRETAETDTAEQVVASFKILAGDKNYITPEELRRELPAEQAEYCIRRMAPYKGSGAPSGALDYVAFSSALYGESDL
UniProt Q9CZW4: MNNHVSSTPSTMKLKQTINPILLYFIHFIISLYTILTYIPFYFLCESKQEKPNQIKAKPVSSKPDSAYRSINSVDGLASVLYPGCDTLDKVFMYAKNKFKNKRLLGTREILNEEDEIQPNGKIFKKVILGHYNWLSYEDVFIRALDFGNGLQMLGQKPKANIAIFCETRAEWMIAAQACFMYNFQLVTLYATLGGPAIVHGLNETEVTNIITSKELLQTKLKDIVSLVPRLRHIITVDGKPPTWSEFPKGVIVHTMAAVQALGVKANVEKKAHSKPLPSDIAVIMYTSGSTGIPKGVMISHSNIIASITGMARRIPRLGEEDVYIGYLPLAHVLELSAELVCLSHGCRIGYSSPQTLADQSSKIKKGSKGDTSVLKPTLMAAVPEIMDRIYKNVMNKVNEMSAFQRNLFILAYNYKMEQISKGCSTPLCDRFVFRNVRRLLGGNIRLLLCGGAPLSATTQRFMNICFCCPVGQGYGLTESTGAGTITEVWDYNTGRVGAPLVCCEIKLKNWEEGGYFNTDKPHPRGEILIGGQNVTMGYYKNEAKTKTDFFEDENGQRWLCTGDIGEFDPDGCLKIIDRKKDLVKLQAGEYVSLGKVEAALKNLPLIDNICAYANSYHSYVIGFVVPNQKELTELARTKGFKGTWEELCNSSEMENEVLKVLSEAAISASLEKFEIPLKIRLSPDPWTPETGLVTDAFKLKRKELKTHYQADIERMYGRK

Row | binding | Molecule
1 | binds | Acyl-CoA synthetase long chain family member 3 (ACSL3) (from UniProt Q9CZW4 1-720)
2 | binds | lysophosphatidylcholine acyltransferase 1 (LPCAT1) (protein, UniProt Q3TFD2 1-534) MRLRGRGPRAAPSSSSGAGDARRLAPPGRNPFVHELRLSALQKAQVAFMTLTLFPIRLLFAAFMMLLAWPFALLASLGPPDKEPEQPLALWRKVVDFLLKAIMRTMWFAGGFHRVAVKGRQALPTEAAILTLAPHSSYFDAIPVTMTMSSIVMKAESRDIPIWGTLIRYIRPVFVSRSDQDSRRKTVEEIKRRAQSNGKWPQIMIFPEGTCTNRTCLITFKPGAFIPGVPVQPVVLRYPNKLDTITWTWQGPGALKILWLTLCQFQNQVEIEFLPVYCPSEEEKRNPALYASNVRRVMAKALGVSVTDYTFEDCQLALAEGQLRLPADTCLLEFARLVRGLGLKPENLEKDLDKYSESARMKRGEKIRLPEFAAYLEVPVSDALEDMFSLFDESGGGEIDLREYVVALSVVCRPSQTLATIQLAFKMYGSPEDGSIDEANLSCILKTALGVSELTVTDLFQAIDQEDKGRITFDDFCGFAEMYPDYAEDYLYPDQTHFDSCAQTPPAPTPNGFCIDFSPENSDFGRKNSCKKAD

Reference: article PMC8611090
